These are yes or no findings as the source states them, for the method shown. Binding seen in cells or lysates may run through a third protein. Some results given as binding are weak or reduced against the parent protein; the word gives no strength.
Molecular target: Staphylococcal Nuclease And Tudor Domain Containing 1 (human (endogenous in PCa cell lines)) (UniProt Q7KZF4)
Test: co-IP; about 10^7 PCa cells lysed in IP buffer (50 mM Tris-HCl pH 7.4, 150 mM NaCl, 2 mM EDTA, 1% NP-40); anti-SND1 or anti-C-Myb antibody, Protein A/G magnetic beads; IgG as negative control; western blot; cells with or without overexpression of circ_0004087

By UniProt entry, the sequences of proteins in these tests, tags left out.
UniProt Q7KZF4: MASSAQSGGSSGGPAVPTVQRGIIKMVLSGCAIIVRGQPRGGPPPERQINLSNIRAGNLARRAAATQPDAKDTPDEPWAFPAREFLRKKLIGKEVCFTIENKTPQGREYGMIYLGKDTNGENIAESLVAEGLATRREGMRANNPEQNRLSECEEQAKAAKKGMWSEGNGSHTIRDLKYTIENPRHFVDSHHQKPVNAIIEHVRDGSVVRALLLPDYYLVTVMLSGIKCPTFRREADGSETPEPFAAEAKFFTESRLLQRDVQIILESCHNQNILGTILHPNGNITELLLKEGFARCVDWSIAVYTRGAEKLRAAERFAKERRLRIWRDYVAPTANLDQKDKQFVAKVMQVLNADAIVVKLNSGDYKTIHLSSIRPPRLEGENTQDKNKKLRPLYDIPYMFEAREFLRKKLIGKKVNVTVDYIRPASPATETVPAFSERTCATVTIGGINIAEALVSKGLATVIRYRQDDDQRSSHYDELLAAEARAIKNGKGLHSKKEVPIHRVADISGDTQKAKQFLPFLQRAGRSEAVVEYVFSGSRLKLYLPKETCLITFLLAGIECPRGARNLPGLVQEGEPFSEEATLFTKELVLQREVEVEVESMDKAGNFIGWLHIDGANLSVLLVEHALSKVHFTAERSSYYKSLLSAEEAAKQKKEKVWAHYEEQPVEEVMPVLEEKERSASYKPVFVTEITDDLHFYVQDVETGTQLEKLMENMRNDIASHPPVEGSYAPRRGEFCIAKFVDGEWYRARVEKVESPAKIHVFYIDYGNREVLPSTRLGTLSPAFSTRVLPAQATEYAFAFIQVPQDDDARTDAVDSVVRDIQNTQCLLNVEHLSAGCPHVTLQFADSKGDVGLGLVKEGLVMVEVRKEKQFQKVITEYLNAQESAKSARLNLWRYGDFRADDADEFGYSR
UniProt P10242: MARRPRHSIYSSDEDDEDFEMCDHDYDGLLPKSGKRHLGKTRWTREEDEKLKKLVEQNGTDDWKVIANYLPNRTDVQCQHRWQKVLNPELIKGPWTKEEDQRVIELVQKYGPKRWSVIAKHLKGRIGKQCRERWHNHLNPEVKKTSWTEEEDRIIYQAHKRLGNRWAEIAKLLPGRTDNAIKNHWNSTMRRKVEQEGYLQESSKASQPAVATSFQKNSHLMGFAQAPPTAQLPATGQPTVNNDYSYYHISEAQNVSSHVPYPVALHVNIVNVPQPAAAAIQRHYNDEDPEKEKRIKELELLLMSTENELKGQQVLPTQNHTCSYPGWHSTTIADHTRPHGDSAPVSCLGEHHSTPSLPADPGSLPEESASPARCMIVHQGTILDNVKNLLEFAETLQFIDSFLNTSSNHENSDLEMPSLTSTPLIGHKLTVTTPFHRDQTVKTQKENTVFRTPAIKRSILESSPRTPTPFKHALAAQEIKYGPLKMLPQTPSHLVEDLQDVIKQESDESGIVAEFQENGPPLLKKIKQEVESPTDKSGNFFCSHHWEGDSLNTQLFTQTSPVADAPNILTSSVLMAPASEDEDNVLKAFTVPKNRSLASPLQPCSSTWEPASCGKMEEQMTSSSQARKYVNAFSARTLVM

MYB (from UniProt P10242 1-640)
binding: binds

Reference: publication PMC9166435
